Counter-ions that a name gives are not always drawn. The list shows a part of the results. Single values are uncertain, as repeats are few or missing.
Legend:
Test in all cases: reduction in cell viability relative to untreated/vehicle; higher = more growth inhibition
Conditions in all cases: 200 nM; 72 h
[1] = system: M229P (parental melanoma line)
[2] = system: M229R (matched melanoma line resistant to BRAF inhibitors)
[3] = system: M238P (parental melanoma line)
[4] = system: M238R (matched melanoma line resistant to BRAF inhibitors)
[5] = system: M249P (parental melanoma line)
[6] = system: M249R (matched melanoma line resistant to BRAF inhibitors)
[7] = system: UACC62P (parental melanoma line)
[8] = system: UACC62R (matched melanoma line resistant to BRAF inhibitors)

Row | SMILES | reduction in cell viability [1] [%] | reduction in cell viability [2] [%] | reduction in cell viability [3] [%] | reduction in cell viability [4] [%] | reduction in cell viability [5] [%] | reduction in cell viability [6] [%] | reduction in cell viability [7] [%] | reduction in cell viability [8] [%]
1 | CN1CCC[C@@H]1CCO[C@](C)(c1ccccc1)c1ccc(Cl)cc1 [Clemastine fumarate] | < 0 | < 0 | < 0 | < 0 | < 0 | < 0 | < 0 | < 0
2 | CCOC(=O)c1c(C)n(C)c2ccc(O)cc12 [Mecarbinate] | < 0 | < 0 | < 0 | < 0 | < 0 | < 0 | < 0 | < 0
3 | C[C@H]1c2cccc(O)c2C(=O)C2=C(O)[C@]3(O)C(=O)C(C(N)=O)=C(O)[C@@H](N(C)C)[C@@H]3[C@@H](O)[C@@H]21 [Doxycycline] | < 0 | < 0 | < 0 | < 0 | < 0 | < 0 | < 0 | < 0
4 | CN(C)c1ccc(C2Nc3ccc4ccccc4c3C3=C2C(=O)CC(C)(C)C3)cc1Br (centres undefined) | < 0 | < 0 | < 0 | < 0 | < 0 | 0.17 | < 0 | < 0
5 | Cc1ccc2c(c1)c1c(n2CCc2ccc(C)nc2)CCN(C)C1 [Latrepirdine hydrochloride] | < 0 | < 0 | < 0 | < 0 | < 0 | < 0 | < 0 | < 0
6 | O=C(/C=C/c1ccc(CN(CCO)CCc2c[nH]c3ccccc23)cc1)NO [Dacinostat] | 85.6 | 73.8 | 82.1 | 79.5 | 77.8 | 87.4 | 90.8 | 87.3
7 | Cc1ccc(S(=O)(=O)N[C@@H](Cc2ccccc2)C(=O)CCl)cc1 | < 0 | < 0 | < 0 | < 0 | < 0 | < 0 | < 0 | < 0
8 | Cc1nc(C(=O)NCC(=O)O)c(O)c2ccc(Oc3ccccc3)cc12 [Roxadustat (FG-4592)] | < 0 | 4.41 | < 0 | < 0 | < 0 | < 0 | < 0 | < 0
9 | CC1(C)CC(=O)c2c(C(F)(F)F)nn(-c3ccc(C(N)=O)c(N[C@H]4CC[C@H](O)CC4)c3)c2C1 | 56.1 | 50 | 61.5 | 62.3 | 40 | 39.1 | 78.6 | 56.5
10 | CC1=C(/C=C/C(C)=C/C=C/C(C)=C/C(=O)Nc2ccc(O)cc2)C(C)(C)CCC1 [Fenretinide] | < 0 | < 0 | < 0 | < 0 | < 0 | < 0 | < 0 | < 0
11 | NCCS(=O)(=O)O [l-Taurine] | < 0 | < 0 | < 0 | < 0 | < 0 | < 0 | < 0 | < 0
12 | O=c1[nH]c(=O)n([C@H]2C[C@H](O)[C@@H](CO)O2)cc1F [Floxuridine] | 1.09 | 16.8 | 20.3 | < 0 | < 0 | < 0 | 24.9 | 78
13 | CC1(C)CC(=O)c2c(C(F)(F)F)nn(-c3ccc(C(N)=O)c(N[C@H]4CC[C@H](OC(=O)CN)CC4)c3)c2C1 | 63.8 | 62.8 | 49.6 | 61.7 | 36.4 | 32.9 | 72.4 | 70.5
14 | Cn1cnc2c1c(=O)[nH]c(=O)n2C [Theobromine] | < 0 | < 0 | < 0 | < 0 | < 0 | 8.46 | < 0 | < 0
15 | Cc1nc(NC(=O)N2CCC[C@H]2C(N)=O)sc1-c1ccnc(C(C)(C)C(F)(F)F)c1 | < 0 | 8.84 | 17.3 | 9.44 | < 0 | < 0 | 9.43 | < 0
16 | CCC(=O)NC[C@H](Cc1ccc(OCCc2nc(-c3ccccc3)oc2C)cc1)N/C(C)=C\C(=O)c1ccc(C(F)(F)F)cc1 | < 0 | < 0 | < 0 | < 0 | < 0 | < 0 | < 0 | < 0
17 | COc1cc(-c2nn([C@H]3CC[C@H](N4CCN(C(C)=O)CC4)CC3)c3ncnc(N)c23)ccc1NC(=O)c1cc2ccccc2n1C | < 0 | < 0 | 11.9 | < 0 | < 0 | < 0 | 12.7 | < 0
18 | NC(=O)N/N=C/c1ccc([N+](=O)[O-])o1 [Nitrofurazone] | < 0 | < 0 | < 0 | < 0 | < 0 | < 0 | 4.11 | < 0
19 | O=C1[C@H](CC[C@H](O)c2ccc(F)cc2)[C@@H](c2ccc(O)cc2)N1c1ccc(F)cc1 [Ezetimibe] | < 0 | 0.18 | < 0 | < 0 | < 0 | < 0 | < 0 | < 0
20 | C[C@H]1C[C@H]2[C@@H]3CCC4=CC(=O)C=C[C@]4(C)[C@@]3(F)[C@@H](O)C[C@]2(C)[C@@]1(O)C(=O)CO [Betamethasone] | < 0 | < 0 | < 0 | < 0 | < 0 | < 0 | < 0 | < 0
21 | Nc1cc(C(Cl)=C(Cl)Cl)c(S(N)(=O)=O)cc1S(N)(=O)=O [Clorsulon] | 4.81 | < 0 | < 0 | < 0 | < 0 | < 0 | < 0 | < 0
22 | CC(=O)O[C@@]12CO[C@@H]1C[C@H](O)[C@@]1(C)C(=O)[C@H](O)C3=C(C)[C@@H](OC(=O)[C@H](O)[C@@H](NC(=O)OC(C)(C)C)c4ccccc4)C[C@@](O)([C@@H](OC(=O)c4ccccc4)[C@H]21)C3(C)C [Docetaxel] | 18.4 | 28.7 | 55.3 | 55.9 | 35.4 | 39.5 | 21.3 | 75.7

Row | SMILES | reduction in cell viability [1] [%] | reduction in cell viability [2] [%] | reduction in cell viability [3] [%] | reduction in cell viability [4] [%] | reduction in cell viability [5] [%] | reduction in cell viability [6] [%] | reduction in cell viability [7] [%] | reduction in cell viability [8] [%]
23 | O=C(O)c1nc(=O)[nH]c(=O)[nH]1 [Oteracil potassium] | < 0 | < 0 | < 0 | < 0 | < 0 | < 0 | < 0 | < 0
24 | COc1cccc2c1C(=O)c1c(O)c3c(c(O)c1C2=O)C[C@@](O)(C(C)=O)C[C@@H]3O[C@H]1C[C@H](N)[C@H](O)[C@H](C)O1 [Daunorubicin] | < 0 | < 0 | < 0 | < 0 | < 0 | < 0 | < 0 | < 0
25 | CN1N=C(N)c2cn([C@@H]3O[C@H](COP(=O)(O)O)[C@@H](O)[C@H]3O)c3ncnc1c23 [Triciribine phosphate] | < 0 | 14.3 | < 0 | < 0 | < 0 | < 0 | < 0 | < 0
26 | Cc1ccccc1C(C(=O)NC1CCCCC1)N(C(=O)Cn1ccnc1C)c1cccc(F)c1 (centres undefined) | < 0 | < 0 | < 0 | < 0 | < 0 | < 0 | 1.77 | < 0
27 | Clc1ccc(C(Cn2ccnc2)OCc2ccc(Sc3ccccc3)cc2)c(Cl)c1 (centres undefined) [Fenticonazole nitrate] | < 0 | < 0 | < 0 | < 0 | < 0 | < 0 | 10.4 | < 0
28 | Cc1cc(NC(=O)Nc2ccc(N(C)C)cc2)c2cc(F)cc(F)c2n1 | < 0 | < 0 | < 0 | < 0 | < 0 | < 0 | < 0 | < 0
29 | CC(=O)[C@H]1CC[C@H]2[C@@H]3CC=C4C[C@@H](O)CC[C@]4(C)[C@H]3CC[C@]12C [Pregnenolone] | < 0 | < 0 | < 0 | < 0 | < 0 | < 0 | < 0 | < 0
30 | NC(=O)c1ccc(I)c([N+](=O)[O-])c1 [Iniparib] | < 0 | < 0 | < 0 | < 0 | < 0 | < 0 | < 0 | < 0
31 | Cn1cc(-c2ccc3nnc(Sc4ccc5ncccc5c4)n3n2)cn1 | < 0 | < 0 | < 0 | < 0 | < 0 | < 0 | < 0 | < 0
32 | CC1(C)C(=O)N(CCN2CCC(C(=O)c3ccc(F)cc3)CC2)c2ccccc21 | < 0 | < 0 | < 0 | < 0 | < 0 | < 0 | < 0 | < 0
33 | CC1=C(C(=O)O)N2C(=O)[C@@H](NC(=O)[C@H](N)c3ccccc3)[C@H]2SC1 [Cephalexin] | < 0 | 5.6 | < 0 | < 0 | < 0 | < 0 | < 0 | < 0
34 | Cc1cc2c(cc1C1(c3ccc(C(=O)O)cn3)CC1)C(C)(C)CCC2(C)C | < 0 | < 0 | < 0 | < 0 | < 0 | < 0 | < 0 | < 0
35 | CC(C)CN(C[C@@H](O)[C@H](Cc1ccccc1)NC(=O)O[C@H]1CCOC1)S(=O)(=O)c1ccc(N)cc1 [Amprenavir] | < 0 | < 0 | < 0 | < 0 | < 0 | < 0 | < 0 | < 0
36 | C[C@@H](c1ncncc1F)[C@](O)(Cn1cncn1)c1ccc(F)cc1F [Voriconazole] | < 0 | < 0 | < 0 | < 0 | < 0 | < 0 | < 0 | < 0
37 | N[C@@H]1CN(c2c(F)cc3c(=O)c(C(=O)O)cn([C@@H]4C[C@@H]4F)c3c2Cl)CC12CC2 [Sitafloxacin] | < 0 | < 0 | < 0 | < 0 | < 0 | < 0 | < 0 | < 0
38 | C=CCc1ccc(O)c(-c2ccc(O)c(CC=C)c2)c1 [Honokiol] | < 0 | < 0 | 3.2 | < 0 | < 0 | < 0 | 7.68 | < 0
39 | c1cc(OCCN2CCCCC2)cc(-c2n[nH]c3ccc(-c4nnc[nH]4)cc23)c1 | < 0 | < 0 | < 0 | < 0 | < 0 | < 0 | < 0 | < 0
40 | COc1cc(C(=O)N2CCC(N3CCN(C)CC3)CC2)ccc1Nc1ncc2c(n1)N(C)c1ccccc1C(=O)N2C | 10.9 | < 0 | < 0 | < 0 | 15.1 | 13.7 | 0.42 | < 0
41 | CC(C)(O)c1cc2nc(-c3cnc(N)nc3)nc(N3CCOCC3)c2s1 | < 0 | 14.6 | 11.6 | 17.1 | < 0 | 2.52 | < 0 | 16.1
42 | Cn1cnc(N)c2ncnc1-2 [3-Methyladenine] | < 0 | < 0 | < 0 | < 0 | < 0 | < 0 | < 0 | < 0
43 | CC1(C)CCC2=C(O1)c1ccccc1C(=O)C2=O [beta-Lapachone] | < 0 | < 0 | < 0 | < 0 | < 0 | 4.57 | 12 | < 0

Structural class: the compounds so far containing an aryl thioether with sulfur outside any ring
Row | SMILES | reduction in cell viability [1] [%] | reduction in cell viability [2] [%] | reduction in cell viability [3] [%] | reduction in cell viability [4] [%] | reduction in cell viability [5] [%] | reduction in cell viability [6] [%] | reduction in cell viability [7] [%] | reduction in cell viability [8] [%]
27 | Clc1ccc(C(Cn2ccnc2)OCc2ccc(Sc3ccccc3)cc2)c(Cl)c1 (centres undefined) [Fenticonazole nitrate] | < 0 | < 0 | < 0 | < 0 | < 0 | < 0 | 10.4 | < 0
31 | Cn1cc(-c2ccc3nnc(Sc4ccc5ncccc5c4)n3n2)cn1 | < 0 | < 0 | < 0 | < 0 | < 0 | < 0 | < 0 | < 0

— the supplement of paper PMC9015667
